No constants are given. Whether binding was seen depends on the method and setting. In cells and extracts the contact can be indirect. Some entries that bind do so weakly or less than the wild type. For some assays here: Where a sequence is shown, tags or fusion partners need not be part of it.
Key:
[1] = target: T1, FlaA flagellin of Helicobacter pylori (HpFlaA), 6xHis-Myc-tagged (Helicobacter pylori) (UniProt P0A0S1); assay: pull-down
T1 sequence: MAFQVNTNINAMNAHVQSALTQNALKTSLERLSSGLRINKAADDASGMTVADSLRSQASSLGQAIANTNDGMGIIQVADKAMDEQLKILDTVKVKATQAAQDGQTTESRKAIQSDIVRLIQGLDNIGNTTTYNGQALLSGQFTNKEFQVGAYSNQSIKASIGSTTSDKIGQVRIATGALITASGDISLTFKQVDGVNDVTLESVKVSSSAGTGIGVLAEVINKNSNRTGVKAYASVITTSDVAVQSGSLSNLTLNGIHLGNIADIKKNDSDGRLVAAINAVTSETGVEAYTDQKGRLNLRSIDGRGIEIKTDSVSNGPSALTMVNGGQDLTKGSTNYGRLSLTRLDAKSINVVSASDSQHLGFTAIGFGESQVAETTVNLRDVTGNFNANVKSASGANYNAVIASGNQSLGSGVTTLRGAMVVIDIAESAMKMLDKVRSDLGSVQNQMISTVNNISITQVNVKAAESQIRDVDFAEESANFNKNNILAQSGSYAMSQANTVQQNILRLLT

Chains of the proteins cited; added tags and fusions are not shown. Residues count along the entry.
UniProt P06179: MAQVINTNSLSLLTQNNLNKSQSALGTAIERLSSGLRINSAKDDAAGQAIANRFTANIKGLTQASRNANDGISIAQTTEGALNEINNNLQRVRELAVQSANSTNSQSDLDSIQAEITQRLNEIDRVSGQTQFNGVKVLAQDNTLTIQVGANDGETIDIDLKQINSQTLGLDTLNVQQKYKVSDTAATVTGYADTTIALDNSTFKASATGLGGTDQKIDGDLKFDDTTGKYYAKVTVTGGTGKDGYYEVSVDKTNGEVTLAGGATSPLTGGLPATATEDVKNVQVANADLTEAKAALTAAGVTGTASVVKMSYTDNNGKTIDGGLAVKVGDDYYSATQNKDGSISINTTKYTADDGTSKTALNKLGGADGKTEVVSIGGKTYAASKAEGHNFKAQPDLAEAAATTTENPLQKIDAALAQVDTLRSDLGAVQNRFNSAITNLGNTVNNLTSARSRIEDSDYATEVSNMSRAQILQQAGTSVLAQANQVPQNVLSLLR
UniProt O60602, residues 21-858: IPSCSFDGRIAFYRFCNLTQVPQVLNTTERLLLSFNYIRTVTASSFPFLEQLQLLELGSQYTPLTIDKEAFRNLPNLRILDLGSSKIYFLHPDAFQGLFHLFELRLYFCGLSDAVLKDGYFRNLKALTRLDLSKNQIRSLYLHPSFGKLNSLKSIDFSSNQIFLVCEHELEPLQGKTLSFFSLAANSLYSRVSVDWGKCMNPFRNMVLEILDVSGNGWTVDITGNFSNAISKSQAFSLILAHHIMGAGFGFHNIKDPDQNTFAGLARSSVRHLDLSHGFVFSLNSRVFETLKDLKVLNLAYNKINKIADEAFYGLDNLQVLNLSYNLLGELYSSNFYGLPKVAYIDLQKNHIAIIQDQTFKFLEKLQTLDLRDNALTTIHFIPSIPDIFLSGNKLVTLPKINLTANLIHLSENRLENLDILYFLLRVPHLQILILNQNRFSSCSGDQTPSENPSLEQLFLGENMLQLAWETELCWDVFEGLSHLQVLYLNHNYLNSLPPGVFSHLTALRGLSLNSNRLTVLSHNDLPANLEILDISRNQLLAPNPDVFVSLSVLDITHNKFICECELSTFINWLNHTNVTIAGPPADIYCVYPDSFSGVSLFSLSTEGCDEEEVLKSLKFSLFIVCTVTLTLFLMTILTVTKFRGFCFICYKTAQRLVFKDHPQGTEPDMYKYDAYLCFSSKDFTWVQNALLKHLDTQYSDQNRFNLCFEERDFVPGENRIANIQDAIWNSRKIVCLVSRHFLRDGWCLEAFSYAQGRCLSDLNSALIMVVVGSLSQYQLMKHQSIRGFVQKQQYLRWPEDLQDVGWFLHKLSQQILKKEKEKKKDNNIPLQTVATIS

[2] = target: FliC flagellin of Salmonella enterica serovar Typhimurium, 6xHis-Myc-tagged (Salmonella enterica serovar Typhimurium) (UniProt P06179); assay: pull-down

## full-length human TLR5, HA-tagged (TLR5-HA) (from UniProt O60602 21-858) (receptor)
[1]
  binding: no binding
[2]
  binding: binds
